In PubChem BioAssay AID2685 (National Center for Advancing Translational Sciences (NCATS), 2010):
Some of the results follow. These are further read-outs of the screen, such as a control signal, another cell line or another target. No call is given for them. The list favours compounds with an active or inconclusive main result. Words in brackets tell the shape of the fitted curve; partial curves, single points and poor fits give uncertain potencies.

Assay: qHTS Assay for Lipid Storage Modulators in Drosophila S3 Cells;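 on cell number change: cells counted by Cell Tracker Red CMTPX staining in the red channel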
Conditions: BODIPY lipid droplet fluorescence, 18-24 h; for cell number change: measured here: cell count max response, cells fed with added oleic acid
Method in brief: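 Drosophila S3 cells loaded with oleic acid (400 uM, as added) and compounds at several concentrations; lipid droplets imaged by 488-nm laser-scanning cytometry, 500–530 nm intensity and object ratio to cell channel. Percent activity normalized to 20 uM Triacsin C.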

[1] = measured here: cell number channel AC50, cells fed with added oleic acid
[2] = measured here: lipid fluorescence (Fed channel) AC50, cells fed with added oleic acid

| SMILES | cell number change [%] | AC50 [1] | AC50 [2] |
| --- | --- | --- | --- |
| C/C(Cl)=C\Cn1c(O)c(N=NC(N)=S)c2cc(Br)ccc21 | -52.9 | 20.6 µM [falling, single point] | 20.6 µM [falling, partial curve] |
| Cc1cc(C)c2c(c1)/C(=N/NS(=O)(=O)c1ccc(Br)cc1)CCC2 | -57.3 | 16.4 µM [falling, single point] |  |
| COc1ccc(NC(=O)CSc2nccc(C)n2)cc1 |  |  | 4.61 µM [rising, partial curve] |
| O=C(CSc1n[nH]c(=O)[nH]c1=O)c1ccccc1[N+](=O)[O-] | 3.8 |  | 0.0058 µM [falling, full curve, poor fit] |
| CCc1cc(C(=O)N2CCN(S(=O)(=O)c3ccc(Cl)cc3)CC2)sc1C |  |  | 14.6 µM [falling, partial curve, poor fit] |
| Cc1ccc(-c2nnc(SCC#CCOC(=O)c3ccco3)o2)cc1 | 93.7 | 8.2 µM [rising, partial curve, poor fit] | 1.16 µM [rising, full curve] |
| COc1cccc(NC(=O)Nc2nnc(Cc3ccccc3)s2)c1 | -16.9 |  | 14.6 µM [falling, partial curve] |
| COc1ccc(/C=N/NC(=O)c2ccc3c(c2)NC(=O)C(C)(C)O3)cc1OC | -4.78 |  | 2.91 µM [rising, single point] |
| Cc1ccccc1C(=O)NCC(=O)OC(C)C(=O)NCc1ccco1 (stereo unspecified) | -15 |  |  |
| CCSc1nsc(NC(=O)Nc2cccc(F)c2)n1 | -30.5 | 10.3 µM [falling, single point] | 3.66 µM [falling, single point] |
| CC(C)(C)NC(=O)C(c1ccco1)N(Cc1ccc2c(c1)OCO2)C(=O)Cn1nnc2ccccc21 (stereo unspecified) | -19.5 |  | 0.0164 µM [rising, full curve, poor fit] |
| CCN(CC(=O)Nc1ccc(OC)cc1)C(=O)c1ccc(N2CCCC2=O)cc1 | -5.64 |  | 0.58 µM [falling, single point] |
| CC1CCN(S(=O)(=O)CCNC(=O)c2ccc3c(c2)OCO3)CC1 | -26.1 | 0.116 µM [falling, full curve, poor fit] | 0.092 µM [falling, full curve, poor fit] |
| Cc1ccc2nc(NS(C)(=O)=O)sc2c1 | 0.819 |  | 2.31 µM [falling, partial curve] |
| CC(=O)c1sc(N/N=C\c2ccc(C)cc2)nc1C | -30.7 | 10.3 µM [falling, single point] | 0.58 µM [falling, single point] |
| CC(C(=O)Nc1ccccc1)N(C)CCOc1ccc(Br)cc1 (stereo unspecified) | 20.6 |  | 7.31 µM [falling, partial curve, poor fit] |
| Cc1ccc(COC(=O)CN2C(=O)NC3(CCCCC3C)C2=O)cc1 (stereo unspecified) | -1.87 |  | 6.51 µM [rising, single point] |
| O=C1c2ccccc2C(=O)N1CCSc1nnc(-c2ccco2)n1Cc1ccccc1 | -9.03 | 0.164 µM [rising, full curve, poor fit] | 4.11 µM [rising, partial curve] |
| COc1ccc(Nc2ccccc2)c(C)c1 | -22.7 |  |  |
| Cc1ccc(NC(=O)CSc2nc3ccccc3c3nc4ccccc4n23)cc1 | -16 | 2.59 µM [falling, partial curve] | 2.31 µM [falling, full curve] |

| SMILES | cell number change [%] | AC50 [1] | AC50 [2] |
| --- | --- | --- | --- |
| CN1CC(c2ccccc2)C(c2ccc(Cl)cc2)=N1 (stereo unspecified) | -9.66 |  | 7.31 µM [falling, partial curve] |
| Cc1nc(-c2cc(-c3ccc(Cl)cc3)no2)cs1 | 4.96 |  |  |
| CCOC(=O)NC(CC(=O)O)c1ccc(OC)cc1 (stereo unspecified) | -16.5 |  |  |
| Cc1ccc(NC(=O)c2ccc3c(c2)C(=O)N(Cc2cccnc2)C3=O)c(C)c1 |  |  | 0.112 µM [rising, full curve, poor fit] |
| Cc1cccc(N=Nc2c(C)nn(-c3ccccc3)c2N)c1C | -4.3 |  | 1.84 µM [rising, partial curve] |
| CNC(=S)NC1CC2CCCC(C1)N2Cc1ccc(C)cc1 (stereo unspecified) | -12.2 |  |  |
| Cc1cc(C)c2c(N)c3cccc(C)c3nc2n1 | -37.7 | 0.58 µM [falling, full curve, poor fit] | 25.9 µM [falling, single point] |
| Cc1sc(N2C(=O)C3C4C=CC(C4)C3C2=O)c(C#N)c1C (stereo unspecified) | -52.1 | 25.9 µM [falling, single point] |  |
| O=C(c1cc(COc2c(F)cccc2F)on1)N1CCN(C2CCCCC2)C(=O)C1 | 22.9 |  | 0.00411 µM [falling, full curve, poor fit] |
| CC(C)n1nnnc1-c1ccc(Cl)cc1 | -24 |  | 5.17 µM [falling, full curve, poor fit] |
| CSc1ccc(CCNC(=O)CCc2nnc3ccc(N4CCOCC4)nn23)cc1 | 28.7 |  | 13 µM [falling, single point] |
| Cc1ccc(S(=O)(=O)N(C)c2ccc(C(=O)O)cc2)cc1 | 2.77 |  | 29.1 µM [falling, partial curve, poor fit] |
| CC(C)C(C(=O)NC(C)(C)C)N1C(=O)c2ccccc2C1=O (stereo unspecified) | 15.3 |  |  |
| Cc1ccc(NC(=O)CN2CCc3ccccc3C2)cc1S(=O)(=O)N1CCOCC1 | 16.7 |  | 4.11 µM [rising, full curve, poor fit] |
| c1ccc(-c2onc(-c3ccco3)c2-c2ccc3[nH]ccc3c2)cc1 | -25.6 |  | 29.1 µM [falling, single point] |
| O=C1Nc2ccc(C(F)(F)F)cc2N2CCCC12 (stereo unspecified) | 2.16 |  | 0.411 µM [rising, full curve, poor fit] |
| CCNC(=O)/C(C#N)=C/c1c(N2CCN(Cc3ccc4c(c3)OCO4)CC2)nc2c(C)cccn2c1=O | 15.1 |  | 1.64 µM [rising, partial curve] |
| O=[N+]([O-])c1ccc2nc(-[n+]3c(-c4ccccc4)cc(-c4ccccc4)cc3-c3ccccc3)[nH]c2c1 | -10.5 | 0.651 µM [rising, partial curve, poor fit] | 4.61 µM [rising, partial curve] |
| C/C(=N\NC(=O)c1cccc(N2CCCC2=O)c1)c1ccc(N)cc1 | -19.4 |  | 16.4 µM [falling, single point] |
| CCOc1cc(C2C(C(=O)c3ccc(C)cc3)=C(C(=O)OC)Nc3nnnn32)ccc1O (stereo unspecified) | -24.9 |  |  |

Individual results from the entries so far.
Cc1ccc(-c2nnc(SCC#CCOC(=O)c3ccco3)o2)cc1 | AC50 [1]: 8.2 µM [rising, partial curve, poor fit]
CNC(=S)NC1CC2CCCC(C1)N2Cc1ccc(C)cc1 (stereo unspecified) | cell number change [%]: -12.2
Cc1cc(C)c2c(N)c3cccc(C)c3nc2n1 | AC50 [2]: 25.9 µM [falling, single point]
C/C(Cl)=C\Cn1c(O)c(N=NC(N)=S)c2cc(Br)ccc21 | cell number change [%]: -52.9

More structures follow.

| SMILES | cell number change [%] | AC50 [1] | AC50 [2] |
| --- | --- | --- | --- |
| CCc1ccc(-c2cc(C)no2)cc1S(=O)(=O)N1CCN(c2ccc(OC)cc2)CC1 | 3.77 |  | 2.91 µM [rising, single point] |
| O=C(c1c(F)cccc1F)N1CCCC(c2nc(-c3ccc(Cl)cc3)no2)C1 (stereo unspecified) | -9.79 |  |  |
| O=C(NCCCN1CCOCC1)C1Cc2c(ccc3ccccc23)O1 (stereo unspecified) | -24.6 |  |  |
| CC1CCN(CCNC(=O)C2CCCN(S(=O)(=O)c3cccc4nsnc34)C2)CC1 (stereo unspecified) | -7.66 |  | 0.0116 µM [falling, full curve, poor fit] |
| C=CC[C@]12CCc3sccc3C1N(c1ccc(C(=O)OCC)cc1)C2=O (stereo partly specified) | -39.1 | 0.517 µM [falling, full curve] | 0.411 µM [falling, full curve] |
| Cc1ccc(CN2CCN(Cc3ccccc3C(F)(F)F)CC2)cc1 | -49.6 | 16.4 µM [falling, partial curve] |  |
| CCn1c(SCC(=O)N2CCCc3ccccc32)nnc1-c1c[nH]c2ccccc12 | -53.8 | 32.6 µM [falling, single point] | 16.4 µM [falling, partial curve] |
| CCn1c(CC(=O)Nc2ccc(C)cc2)nnc1SCC(=O)NCc1ccccc1 | 85.9 | 16.4 µM [rising, partial curve] | 1.03 µM [rising, single point] |
| Cc1ccccc1NC(=O)Cn1nnc2ccccc21 |  | 0.184 µM [rising, full curve, poor fit] |  |
| COC(=O)c1ccc(C(=O)NC2CCCc3c2cnn3-c2ccc(C)c(C)c2)cc1 (stereo unspecified) | -18.3 | 1.3 µM [falling, partial curve] |  |
| CC(=O)OCC(=O)[C@H]1CC[C@H]2[C@@H]3CCC4=CC(=O)CC[C@]4(C)[C@H]3CC[C@]12C | 36.7 | 0.651 µM [rising, full curve, poor fit] | 0.411 µM [rising, full curve, poor fit] |
| COc1ccccc1C(=O)Nc1nnc(-c2ccco2)s1 |  |  | 6.51 µM [rising, partial curve, poor fit] |
| COc1ccc(NC(=O)c2oc3ccccc3c2NC(=O)C2CCCO2)cc1OC (stereo unspecified) | 23.3 | 2.06 µM [rising, partial curve] | 2.31 µM [rising, full curve, poor fit] |
| O=C(Cc1ccccc1)NCC1CCCO1 (stereo unspecified) | 27.3 |  | 0.184 µM [falling, full curve] |
| O=c1oc2c(O)cccc2cc1-c1nc2ccccc2[nH]1 | -19.2 |  | 4.61 µM [falling, full curve] |
| CCC1(CC)NC(=O)N(CC(=O)Nc2ccc(S(=O)(=O)N3CCOCC3)cc2)C1=O | 14.4 |  | 16.4 µM [rising, single point] |
| COC(=O)N/N=C(\C)c1ccc(Br)cc1 | 26.5 |  |  |
| CN(Cc1ccccc1F)C(=O)CCNC(=O)c1ccc(C(C)(C)C)cc1 | -59.2 | 9.2 µM [falling, partial curve] | 23.1 µM [falling, partial curve, poor fit] |

Some of these compounds in order of molecular weight, rising:

| SMILES | cell number change [%] | AC50 [1] | AC50 [2] |
| --- | --- | --- | --- |
| O=C(NCCCN1CCOCC1)C1Cc2c(ccc3ccccc23)O1 (stereo unspecified) | -24.6 |  |  |
| O=C(c1c(F)cccc1F)N1CCCC(c2nc(-c3ccc(Cl)cc3)no2)C1 (stereo unspecified) | -9.79 |  |  |
| CCC1(CC)NC(=O)N(CC(=O)Nc2ccc(S(=O)(=O)N3CCOCC3)cc2)C1=O | 14.4 |  | 16.4 µM [rising, single point] |
